Values quoted from earlier work in US20260210975A1, “DIAGNOSIS AND TREATMENT OF LONG-COVID” (priority 2022, published 2026).

By UniProt entry, the sequences of proteins in these tests, tags left out. Where a name states a change or a piece, a line headed by the entry shows the natural chain unless it says otherwise.
UniProt Q12809: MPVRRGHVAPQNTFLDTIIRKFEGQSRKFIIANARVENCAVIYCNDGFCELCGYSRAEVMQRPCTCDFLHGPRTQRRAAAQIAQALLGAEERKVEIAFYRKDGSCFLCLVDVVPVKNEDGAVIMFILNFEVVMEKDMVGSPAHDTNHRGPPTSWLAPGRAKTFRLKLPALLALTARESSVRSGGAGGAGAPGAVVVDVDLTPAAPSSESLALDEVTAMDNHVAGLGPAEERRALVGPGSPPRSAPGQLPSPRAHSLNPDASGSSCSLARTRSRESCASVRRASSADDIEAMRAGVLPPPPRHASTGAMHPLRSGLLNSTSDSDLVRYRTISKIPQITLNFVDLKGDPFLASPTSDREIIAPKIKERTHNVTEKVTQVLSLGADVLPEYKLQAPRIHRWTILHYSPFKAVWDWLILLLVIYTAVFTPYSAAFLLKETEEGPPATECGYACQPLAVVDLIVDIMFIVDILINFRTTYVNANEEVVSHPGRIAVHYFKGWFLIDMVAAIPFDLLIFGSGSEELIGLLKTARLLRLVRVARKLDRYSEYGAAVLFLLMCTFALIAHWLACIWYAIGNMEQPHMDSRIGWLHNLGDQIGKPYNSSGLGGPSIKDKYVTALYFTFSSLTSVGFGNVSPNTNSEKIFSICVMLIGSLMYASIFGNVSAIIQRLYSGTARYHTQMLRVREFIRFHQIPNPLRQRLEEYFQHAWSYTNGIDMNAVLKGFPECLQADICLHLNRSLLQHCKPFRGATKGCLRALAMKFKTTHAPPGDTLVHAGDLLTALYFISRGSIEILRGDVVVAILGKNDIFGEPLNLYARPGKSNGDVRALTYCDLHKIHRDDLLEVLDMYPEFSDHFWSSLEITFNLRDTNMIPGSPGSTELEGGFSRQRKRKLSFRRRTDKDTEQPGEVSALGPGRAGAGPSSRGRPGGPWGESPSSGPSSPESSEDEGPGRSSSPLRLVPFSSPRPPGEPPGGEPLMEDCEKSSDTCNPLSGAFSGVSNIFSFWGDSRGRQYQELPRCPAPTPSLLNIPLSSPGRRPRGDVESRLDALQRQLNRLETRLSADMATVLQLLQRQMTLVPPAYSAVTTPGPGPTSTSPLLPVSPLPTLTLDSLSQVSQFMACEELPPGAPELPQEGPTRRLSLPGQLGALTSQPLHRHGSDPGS

Molecular target: KCNH2 (Homo sapiens, UniProt Q12809)

CN(C)CCC=C1c2ccccc2COc2ccccc21 [doxepin]
IC50: ~4 µM
